From paper PMC4664883, “Selective targeting of nuclear receptor FXR by avermectin analogues with therapeutic effects on nonalcoholic fatty liver disease” (Scientific Reports, 2015)
No constants are given. Whether binding was seen depends on the method and setting. Binding calls can cover weak binding; strength is not graded here.

Chains of the proteins cited; added tags and fusions are not shown. Lines headed by an entry give the natural chain unless they say otherwise; changes in a name come on top.
UniProt Q96RI1: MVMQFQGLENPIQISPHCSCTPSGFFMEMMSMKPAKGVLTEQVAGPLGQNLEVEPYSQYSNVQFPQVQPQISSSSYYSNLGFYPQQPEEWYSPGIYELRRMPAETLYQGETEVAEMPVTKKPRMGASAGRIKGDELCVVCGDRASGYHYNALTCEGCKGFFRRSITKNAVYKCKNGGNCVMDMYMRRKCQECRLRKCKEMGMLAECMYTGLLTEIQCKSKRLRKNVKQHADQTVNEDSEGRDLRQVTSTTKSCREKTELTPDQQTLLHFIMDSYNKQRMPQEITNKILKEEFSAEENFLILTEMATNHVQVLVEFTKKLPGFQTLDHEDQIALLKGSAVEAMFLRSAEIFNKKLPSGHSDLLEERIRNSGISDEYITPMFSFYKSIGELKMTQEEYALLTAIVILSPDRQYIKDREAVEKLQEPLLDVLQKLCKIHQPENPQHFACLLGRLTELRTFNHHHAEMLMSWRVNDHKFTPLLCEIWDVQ

Target: his-tagged FXR ligand binding domain (LBD) (UniProt Q96RI1)
Experiment: AlphaScreen or HTRF; His-tagged FXR LBD with N-terminally biotinylated cofactor peptide, hexahistidine detection kit; with ivermectin, doramectin or abamectin as the FXR ligand (0.5 μM in Fig. 4a); both purified

**Q.** Which binding does the source give for GHSFADPASNLGLEDIIRKALMGSF (N-terminal biotinylation) [biotin-NCoR-2 peptide (nuclear receptor corepressor, motif 2)] here?
**A.** binds
